Counter-ions that a name gives are not always drawn. The list shows a part of the results. Single values are uncertain, as repeats are few or missing. Some results are limits rather than exact numbers.

The test deals with UACC62P (parental melanoma line). Put plainly: reduction in cell viability relative to untreated/vehicle; higher = more growth inhibition. The note with it: 200 nM; 72 h.
`CCCCc1ccc(NS(=O)(=O)c2ccc(C)c(C(=O)N3CCN(c4cccc(C)c4C)CC3)c2)cc1`: the “reduction in cell viability” value is under 0%. Next, `COc1ccccc1N1CCN(CC(O)COc2cccc3ccccc23)CC1` (stereo unspecified) [Naftopidil]: under 0%; `CN[C@H]1CN(c2ccc3c(=O)c(C(=O)O)cn(-c4nccs4)c3n2)C[C@@H]1OC` [Vosaroxin]: under 0%. Under `NC(=O)OCC(COC(N)=O)c1ccccc1` [Felbamate] stands 8.52%; under `CC/C(=C(\c1ccc(O)cc1)c1ccc(OCCNC)cc1)c1ccccc1` [Endoxifen], 5.82%.

Regarding `CC[C@H]1OC(=O)[C@H](C)[C@@H](O[C@H]2C[C@@](C)(OC)[C@@H](O)[C@H](C)O2)[C@H](C)[C@@H](O[C@@H]2O[C@H](C)C[C@H](N(C)C)[C@H]2O)[C@](C)(O)C[C@@H](C)CN(C)[C@H](C)[C@@H](O)[C@]1(C)O` [Azithromycin], the “reduction in cell viability” value was found to be 2.57%. Next, `Nc1ccn([C@@H]2CO[C@H](CO)O2)c(=O)n1` [Troxacitabine]: 2.31%; `COc1cc(N2CCC(N3CCN(C)CC3)CC2)ccc1Nc1ncc(Cl)c(Nc2ccccc2S(=O)(=O)C(C)C)n1`: under 0%; `COC(=O)N1CCN(Cc2cccc(NC(=O)Nc3ccc(C)nc3)c2F)CC1` [Omecamtiv mecarbil]: under 0%.

On to `COc1ccc(C(=O)CC(=O)c2ccc(C(C)(C)C)cc2)cc1` [Avobenzone], for which the “reduction in cell viability” value was under 0%. Next, `C=CC(=O)N1CCc2ccc(-n3c(=O)ccc4cnc5ccc(-c6cnn(C)c6)cc5c43)cc21`: under 0%; `O=c1ccc2ccc(O)c(O)c2o1` [Daphnetin]: 3.29%; `CO[C@H]1/C=C\C=C(/C)C(=O)NC2=CC(=O)C(NCCN(C)C)=C(C[C@@H](C)C[C@H](OC)[C@H](O)[C@@H](C)/C=C(\C)[C@@H]1OC(N)=O)C2=O` [Alvespimycin hydrochloride]: 67.4%. Under `O=C(O)c1cc(O)c2c(c1)C(=O)c1cccc(O)c1C2=O` [Rhein] stands 6.43%; under `Cc1[nH]nc2ccc(-c3cncc(OC[C@@H](N)Cc4ccccc4)c3)cc12`, 29.9%. In the case of `CN1CCCN(C(=O)c2cccc(-c3ccc(/C=C4/C(=O)Nc5ccc(Cl)cc54)o3)c2)CC1`, the “reduction in cell viability” value was found to be 31.7%. Under `CCCCS(=N)(=O)CCC(N)C(=O)O` (stereo unspecified) [Buthionine sulfoximine] stands under 0%; under `Cc1[nH]c(/C=C2\C(=O)Nc3ccccc32)c(C)c1CCC(=O)O` [Orantinib], under 0%.

As to `C1CCC(C(CC2CCCCN2)C2CCCCC2)CC1` (stereo unspecified) [Perhexiline], the “reduction in cell viability” value was under 0%. Next, `Cc1ccc(S(=O)(=O)N[C@@H](Cc2ccccc2)C(=O)CCl)cc1`: under 0%; `NC(=O)Cc1cccc(C(=O)c2ccccc2)c1N` [Nepafenac]: under 0%. Under `Nc1ncnc2c1c(-c1cccc(OCc3ccccc3)c1)cn2C1CC(CN2CCCC2)C1` (stereo unspecified) stands under 0%. `N#CN=C(NCCCCCCOc1ccc(Cl)cc1)Nc1ccncc1`: the “reduction in cell viability” value worked out at 6.96%. Under `O=c1[nH]c(=O)n(C2CCCO2)cc1F` (stereo unspecified) [Tegafur] stands under 0%; under `COc1cc2ncnc(Nc3cccc(Br)c3)c2cc1OC`, under 0%. For the compound `O=C(O)Cc1ccccc1Nc1c(Cl)cccc1Cl` [Diclofenac sodium], the “reduction in cell viability” value was determined as 2.99%. Next, `CS(=O)(=O)c1cc(F)cc2c3c(n(Cc4ccc(Cl)cc4)c12)[C@@H](CC(=O)O)CC3` [Laropiprant]: under 0%; `Cc1cnc(Nc2ccc(F)cc2Cl)nc1-c1c[nH]c(C(=O)N[C@H](CO)c2cccc(Cl)c2)c1`: 53.4%. Turning to `O=C(O)c1ccc(-n2nc(-c3ccccc3O)nc2-c2ccccc2O)cc1` [Deferasirox], the “reduction in cell viability” value was under 0%.

As for `COCC(=O)NC/C=C/c1ccc2ncnc(Nc3ccc(Oc4ccc(C)nc4)c(C)c3)c2c1`, the “reduction in cell viability” value is under 0%. Take `COc1cccc2c1C(=O)c1c(O)c3c(c(O)c1C2=O)C[C@@](O)(C(=O)CO)C[C@@H]3O[C@H]1C[C@H](N)[C@@H](O)[C@H](C)O1` [Epirubicin hydrochloride]: the “reduction in cell viability” value is 23.2%. Next, `Cn1cc(/C=C/C(=O)c2cccc(F)c2)cc1/C=C/C(=O)NO`: under 0%; `CC(C)(OCc1nn(Cc2ccccc2)c2ccccc12)C(=O)O` [Bindarit]: under 0%; `CC[C@H](CO)Nc1nc(NCc2ccccc2)c2ncn(C(C)C)c2n1` [Seliciclib]: under 0%. Next, `CC(=O)N1CCN(c2ccc(OCc3nn(C)c(C)c3-c3cccc4c(CCCOc5cccc6ccccc56)c(C(=O)O)n(Cc5cccnc5)c34)cc2)CC1`: under 0%; `NCCCC(N)(C(=O)O)C(F)F` (stereo unspecified) [Eflornithine Hydrochloride]: under 0%.

Values taken from the supplement of paper PMC9015667.
